Test results reported in PubChem BioAssay AID2685 (National Center for Advancing Translational Sciences (NCATS), 2010).
Some of the results follow. Shown are side measurements of this screen, not its main read-out; they come without a call. The list favours compounds with an active or inconclusive main result. Potencies come from curve fits of mixed quality, noted in brackets.

Test: qHTS Assay for Lipid Storage Modulators in Drosophila S3 Cells;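 as to cell number change: cells counted by Cell Tracker Red CMTPX staining in the red channel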
Conditions: BODIPY lipid droplet fluorescence, 18-24 h; for cell number change: measured here: cell count max response, cells fed with added oleic acid
Summary of the method: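 Drosophila S3 cells loaded with oleic acid (400 uM, as added) and compounds at several concentrations; lipid droplets imaged by 488-nm laser-scanning cytometry, 500–530 nm intensity and object ratio to cell channel. Percent activity normalized to 20 uM Triacsin C.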

[1] = measured here: lipid fluorescence (Fed channel) AC50, cells fed with added oleic acid
[2] = measured here: cell number channel AC50, cells fed with added oleic acid

SMILES | AC50 [1] | cell number change [%] | AC50 [2]
COc1ccc(NC(=O)CSc2nc3c(c(=O)n2-c2ccc(F)cc2)SCC3)cc1 | 29.1 µM [rising, single point] | – | –
CCOC(=O)c1cc2occc2n1Cc1ccc(F)cc1 | – | -6.96 | 0.326 µM [falling, single point]
Cc1cccc(NC(=O)CSc2nsc(SCC(=O)Nc3cccc(C)c3)c2C#N)c1 | 32.6 µM [falling, single point] | – | –
Cc1cnc(C(=O)Nc2ccccc2F)cn1 | – | -141 | 29.1 µM [falling, single point]
CCC(NC(=O)c1cc(COc2c(F)cccc2F)on1)c1ccncc1 (stereo unspecified) | 0.58 µM [rising, single point] | 23.4 | 0.184 µM [rising, full curve, poor fit]
COc1nccc(Nc2ccccc2)c1C#N | – | -14.5 | 0.651 µM [falling, full curve, poor fit]
CCOC(=O)C1CCN(C(=O)CSc2nnc(-c3ccco3)n2-c2ccccc2)CC1 | – | 25.9 | –
Cc1cc(C)cc(NS(=O)(=O)c2cc(C(=O)NCc3ccccn3)ccc2Cl)c1 | 0.231 µM [rising, full curve, poor fit] | 19.9 | –
CC(C)N(Cc1ccccc1)C(=S)NC(=O)C1(C)CC1(Cl)Cl (stereo unspecified) | – | 18.9 | 0.291 µM [rising, partial curve, poor fit]
CCc1nn(CCCC(=O)N2CCC(C)CC2)c(=O)c2cc3occc3n12 | 2.31 µM [falling, full curve] | – | –
COc1ccc(CCC(=O)Nc2cccc(S(=O)(=O)N3CCCCCC3)c2)cc1OC | – | -8.28 | 0.259 µM [falling, partial curve, poor fit]
COc1cc(OC)c(C#N)c(S(=O)(=O)Cc2ccccc2)c1 | 11.6 µM [falling, single point] | -4.75 | –
COC(=O)c1ccc(COc2ccc(C3C4=C(CCCC4=O)Nc4onc(C)c43)cc2)cc1 (stereo unspecified) | – | – | 6.51 µM [rising, partial curve, poor fit]
Cc1ccccc1Cn1cc(NC(=O)c2noc3c2CC(C(C)(C)C)CC3)cn1 (stereo unspecified) | 29.1 µM [falling, partial curve, poor fit] | -25.3 | 3.26 µM [falling, full curve, poor fit]
O=C(O)CSc1nc2ccccc2o1 | – | 1.58 | –
CCN(C(=O)COC(=O)CNC(=O)c1ccc(F)cc1)C1CCS(=O)(=O)C1 (stereo unspecified) | 2.91 µM [falling, single point] | 36.6 | 6.51 µM [falling, partial curve, poor fit]
CSc1ccc(CN2CCC(Oc3ccc(C(=O)N4CCCC4)cc3)CC2)cc1 | – | -7.65 | –
CC(C)CNC(=O)C1CCN(c2ccc(S(=O)(=O)N3CCOCC3)cc2Cl)CC1 | 0.92 µM [falling, full curve, poor fit] | 2.67 | –
O=C(NN1C(=O)/C(=C/c2cc([N+](=O)[O-])ccc2O)SC1=S)c1ccccc1O | 18.4 µM [rising, partial curve, poor fit] | – | –
COc1ccc(S(=O)(=O)N(C)C)cc1NCC(=O)Nc1cccc(C#N)c1 | – | 27.6 | –
Cc1ccc(C)c(S(=O)(=O)NC2CCSC2=O)c1 (stereo unspecified) | – | 2.81 | –

SMILES | AC50 [1] | cell number change [%] | AC50 [2]
Cc1nnc(N=c2ssnc2Cl)o1 | – | -54.7 | 8.2 µM [falling, partial curve, poor fit]
COC(=O)C1=NN(C(=O)c2cccc(Cl)c2)C(O)(C(C)(C)C)C1 (stereo unspecified) | 7.31 µM [rising, partial curve, poor fit] | 14.1 | –
Cc1onc(-c2c(F)cccc2Cl)c1C(=O)NC1CC1 | 29.1 µM [rising, single point] | – | –
COCCNC(=O)Cn1cc2c(n1)CCC(C)C2 (stereo unspecified) | 29.1 µM [rising, single point] | 9.06 | –
CC(NC(=O)c1ccccc1SCC(=O)N1CCCC1)c1ccccc1 (stereo unspecified) | 0.00461 µM [falling, full curve, poor fit] | -15.6 | –
COc1ccc(NC(=O)C2CCN(S(=O)(=O)c3ccc(N4CCCC4=O)cc3)CC2)cc1OC | – | 4.25 | –
Cc1noc(C)c1CSCC(=O)Nc1ccc(S(C)(=O)=O)cc1 | 29.1 µM [falling, single point] | -26.9 | –
NC(=O)c1cc(S(=O)(=O)N2CCOCC2)ccc1N1CCCC1 | 6.51 µM [rising, partial curve, poor fit] | 14.4 | 3.26 µM [rising, partial curve]
CC1(C)CC2CC(C)(CN2C(=O)COC(=O)c2n[nH]c(=O)c3ccccc23)C1 (stereo unspecified) | – | -26.7 | –
CCc1cc(C(=O)Cc2ccc(F)cc2)c(O)cc1O | 13 µM [falling, partial curve] | -62.3 | 13 µM [falling, partial curve]
CC(=O)c1ccc(S(=O)(=O)N2CCc3ccccc3C2)cc1 | – | 7.04 | –
CN1C(=O)/C(=C2\SC(=S)N(CCCCCC(=O)O)C2=O)c2ccccc21 | 11.6 µM [falling, partial curve] | -17.8 | –
COc1cccc(-c2nc(CS(=O)(=O)CC(=O)Nc3ccc(C(C)=O)cc3)c(C)o2)c1 | 6.51 µM [rising, single point] | -12.4 | –
CC1=NN(C(N)=S)C(=O)C1N=Nc1ccc(Br)cc1 (stereo unspecified) | 5.8 µM [falling, full curve] | -29.4 | –
CC(C)(C)CN1CCN(Cc2cccnc2)CC1CCO (stereo unspecified) | 0.13 µM [rising, full curve, poor fit] | 20.1 | –
CCCCOc1ccc(C(=O)N2CCN(CC(=O)Nc3ccc(C)cc3)CC2)cc1OC | 0.103 µM [falling, full curve, poor fit] | – | –
O=C(NCc1ccc(F)cc1)c1ccc(CS(=O)(=O)Cc2ccc(F)cc2)o1 | – | -27.7 | –
Brc1ccccc1OCCCN1CCCC1 | 6.51 µM [falling, single point] | -1.57 | –
Cc1cc(C)n(-c2ccc(C(=O)NC3=NCCS3)cc2)n1 | 0.00517 µM [rising, full curve, poor fit] | -24.7 | –
COc1ccc(NC(=O)Nc2ccc(N3CCCC3=O)cc2)cc1OC | – | 34.8 | 3.26 µM [rising, single point]

Another view of some results above:
SMILES,AC50 [1],cell number change [%],AC50 [2]
O=C(NCc1ccc(F)cc1)c1ccc(CS(=O)(=O)Cc2ccc(F)cc2)o1,–,-27.7,–
Brc1ccccc1OCCCN1CCCC1,"6.51 µM [falling, single point]",-1.57,–
Cc1cc(C)n(-c2ccc(C(=O)NC3=NCCS3)cc2)n1,"0.00517 µM [rising, full curve, poor fit]",-24.7,–
COc1ccc(NC(=O)Nc2ccc(N3CCCC3=O)cc2)cc1OC,–,34.8,"3.26 µM [rising, single point]"
